Consider eleven targets from the supplement of paper PMC12819154, “High-throughput peptide-centric local stability assay extends protein–ligand identification to membrane proteins, tissues and bacteria” (Nature Structural & Molecular Biology, 2025).

Protein sequences, listed by entry. Tags and fused reporters are not part of them. Lines headed by an entry give the natural chain unless they say otherwise; changes in a name come on top.
UniProt Q9CXI5: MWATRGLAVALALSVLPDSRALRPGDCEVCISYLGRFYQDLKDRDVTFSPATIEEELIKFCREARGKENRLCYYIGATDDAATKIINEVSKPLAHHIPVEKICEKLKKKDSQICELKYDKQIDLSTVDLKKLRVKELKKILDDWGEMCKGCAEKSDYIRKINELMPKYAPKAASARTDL
UniProt Q9CX34: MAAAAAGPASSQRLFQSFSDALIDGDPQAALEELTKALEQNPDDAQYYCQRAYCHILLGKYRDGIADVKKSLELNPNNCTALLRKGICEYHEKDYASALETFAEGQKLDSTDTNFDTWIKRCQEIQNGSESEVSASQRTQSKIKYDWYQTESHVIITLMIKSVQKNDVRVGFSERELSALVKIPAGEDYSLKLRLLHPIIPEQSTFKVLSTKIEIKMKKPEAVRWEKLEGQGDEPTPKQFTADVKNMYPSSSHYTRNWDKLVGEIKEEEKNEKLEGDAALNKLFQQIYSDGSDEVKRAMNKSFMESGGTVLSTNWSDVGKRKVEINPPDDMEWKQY
UniProt Q9CXW3, whole entry: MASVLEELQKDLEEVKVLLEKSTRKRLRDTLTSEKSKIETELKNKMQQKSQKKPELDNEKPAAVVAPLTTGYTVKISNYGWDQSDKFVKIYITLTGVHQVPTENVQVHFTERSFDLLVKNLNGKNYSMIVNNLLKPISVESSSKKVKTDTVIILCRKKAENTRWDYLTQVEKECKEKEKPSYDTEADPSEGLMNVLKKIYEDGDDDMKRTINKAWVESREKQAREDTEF
UniProt Q9CWH6: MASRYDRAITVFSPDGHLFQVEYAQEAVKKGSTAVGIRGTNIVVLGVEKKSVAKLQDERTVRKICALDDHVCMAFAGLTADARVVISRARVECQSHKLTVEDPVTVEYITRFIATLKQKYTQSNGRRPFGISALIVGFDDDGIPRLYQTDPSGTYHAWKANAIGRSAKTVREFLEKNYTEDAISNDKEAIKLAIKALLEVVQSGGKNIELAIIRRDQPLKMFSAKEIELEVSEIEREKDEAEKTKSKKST
UniProt Q9CZY3: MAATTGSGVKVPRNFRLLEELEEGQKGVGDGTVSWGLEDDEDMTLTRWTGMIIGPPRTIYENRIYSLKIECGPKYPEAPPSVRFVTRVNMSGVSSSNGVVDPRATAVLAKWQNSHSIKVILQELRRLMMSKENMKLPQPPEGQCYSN
UniProt Q9CZ42: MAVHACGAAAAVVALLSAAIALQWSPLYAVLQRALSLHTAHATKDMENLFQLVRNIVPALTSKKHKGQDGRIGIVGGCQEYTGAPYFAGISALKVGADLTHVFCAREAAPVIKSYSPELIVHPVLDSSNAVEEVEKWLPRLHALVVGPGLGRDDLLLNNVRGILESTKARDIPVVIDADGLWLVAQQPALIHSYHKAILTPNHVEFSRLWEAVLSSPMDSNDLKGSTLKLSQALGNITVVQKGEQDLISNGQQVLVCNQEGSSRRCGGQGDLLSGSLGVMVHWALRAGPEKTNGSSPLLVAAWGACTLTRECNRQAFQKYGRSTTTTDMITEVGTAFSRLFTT
UniProt Q9CX11: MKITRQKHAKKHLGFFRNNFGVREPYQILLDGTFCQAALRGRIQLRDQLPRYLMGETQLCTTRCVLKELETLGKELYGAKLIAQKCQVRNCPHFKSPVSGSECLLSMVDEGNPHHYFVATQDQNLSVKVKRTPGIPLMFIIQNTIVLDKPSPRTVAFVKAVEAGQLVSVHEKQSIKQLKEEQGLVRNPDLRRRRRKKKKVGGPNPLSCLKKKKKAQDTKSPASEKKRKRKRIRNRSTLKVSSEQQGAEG
UniProt Q9CY52: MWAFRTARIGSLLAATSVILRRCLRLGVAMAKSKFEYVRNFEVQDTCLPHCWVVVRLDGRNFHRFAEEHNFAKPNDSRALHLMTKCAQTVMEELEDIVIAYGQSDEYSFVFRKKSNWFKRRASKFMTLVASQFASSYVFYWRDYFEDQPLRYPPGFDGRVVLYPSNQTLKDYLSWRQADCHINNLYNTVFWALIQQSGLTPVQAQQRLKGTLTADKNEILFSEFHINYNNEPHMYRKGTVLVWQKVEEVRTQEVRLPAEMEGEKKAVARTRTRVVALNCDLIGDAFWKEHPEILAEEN
UniProt Q9D0E1: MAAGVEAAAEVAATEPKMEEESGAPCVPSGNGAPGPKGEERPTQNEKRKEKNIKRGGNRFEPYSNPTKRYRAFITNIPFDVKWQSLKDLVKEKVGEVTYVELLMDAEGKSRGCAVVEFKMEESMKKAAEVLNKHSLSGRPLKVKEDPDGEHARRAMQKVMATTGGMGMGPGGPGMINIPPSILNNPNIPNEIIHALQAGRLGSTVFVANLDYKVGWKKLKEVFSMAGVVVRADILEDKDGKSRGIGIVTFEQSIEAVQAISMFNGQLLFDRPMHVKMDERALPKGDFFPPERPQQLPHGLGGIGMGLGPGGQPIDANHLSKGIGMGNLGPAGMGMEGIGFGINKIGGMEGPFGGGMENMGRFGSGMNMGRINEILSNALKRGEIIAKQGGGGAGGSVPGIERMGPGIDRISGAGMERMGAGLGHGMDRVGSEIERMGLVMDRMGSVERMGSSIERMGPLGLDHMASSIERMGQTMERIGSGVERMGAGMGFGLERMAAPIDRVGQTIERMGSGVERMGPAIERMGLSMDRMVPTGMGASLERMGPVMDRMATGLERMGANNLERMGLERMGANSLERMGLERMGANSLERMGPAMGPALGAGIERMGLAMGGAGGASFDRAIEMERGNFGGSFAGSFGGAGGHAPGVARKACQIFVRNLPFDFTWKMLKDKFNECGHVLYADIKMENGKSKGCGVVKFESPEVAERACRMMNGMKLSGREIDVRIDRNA
UniProt Q9CR58: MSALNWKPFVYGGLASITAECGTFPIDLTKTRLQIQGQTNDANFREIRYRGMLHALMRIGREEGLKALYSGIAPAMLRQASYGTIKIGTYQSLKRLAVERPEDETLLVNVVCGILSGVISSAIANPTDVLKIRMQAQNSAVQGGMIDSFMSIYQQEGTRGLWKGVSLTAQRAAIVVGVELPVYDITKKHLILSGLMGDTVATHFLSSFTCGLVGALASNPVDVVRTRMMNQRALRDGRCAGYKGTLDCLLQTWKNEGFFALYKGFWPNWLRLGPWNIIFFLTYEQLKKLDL
UniProt Q9CWJ9: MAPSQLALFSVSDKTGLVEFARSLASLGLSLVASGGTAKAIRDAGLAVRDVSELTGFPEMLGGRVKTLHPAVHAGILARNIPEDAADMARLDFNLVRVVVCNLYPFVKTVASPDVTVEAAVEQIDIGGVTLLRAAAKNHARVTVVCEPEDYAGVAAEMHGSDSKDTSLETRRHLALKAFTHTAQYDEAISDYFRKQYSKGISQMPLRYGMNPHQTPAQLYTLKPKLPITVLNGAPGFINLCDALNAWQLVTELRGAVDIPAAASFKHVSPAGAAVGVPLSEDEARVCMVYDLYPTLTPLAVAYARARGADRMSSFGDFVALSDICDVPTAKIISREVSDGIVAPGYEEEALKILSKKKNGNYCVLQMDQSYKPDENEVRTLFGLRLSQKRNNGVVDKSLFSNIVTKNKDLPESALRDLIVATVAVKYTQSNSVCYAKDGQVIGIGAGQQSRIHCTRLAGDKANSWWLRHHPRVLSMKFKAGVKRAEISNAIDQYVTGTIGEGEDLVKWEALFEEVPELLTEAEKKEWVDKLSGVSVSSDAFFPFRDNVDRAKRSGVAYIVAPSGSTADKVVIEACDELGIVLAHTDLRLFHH

The list shows a part of the results. Small differences around the control level are noise.

Compound in this assay: CN[C@@H]1C[C@H]2O[C@@](C)([C@@H]1OC)n1c3ccccc3c3c4c(c5c6ccccc6n2c5c31)C(=O)NC4 [staurosporine]
The assay can be described thus: log2 fold change of tryptic peptide abundance, ligand vs vehicle (limited proteolysis) (log2 ratio); higher = more trypsin-susceptible (destabilized). Particulars: ligand concentration: 20 uM; sample: mouse liver crude lysate; replicate design: treated separately.
In the case of “UniProt Q9CXI5 (peptide sequence: KINELMPK, peptide start residue: 160)”, the log2 fold change was determined as 0.142.
As for “UniProt Q9CX34 (peptide sequence: LFQQIYSDGSDEVKR, peptide start residue: 283)”, the figure is -0.123.
“UniProt Q9CXW3 (peptide sequence: TDTVIILCR, peptide start residue: 148)”: the log2 fold change was -0.314.
Under “UniProt Q9CWH6 (peptide sequence: ALLEVVQSGGK, peptide start residue: 194)” stands -0.0642; under “UniProt Q9CZY3 (peptide sequence: AATTGSGVKVPR, peptide start residue: 2)”, 0.175.
For “UniProt Q9CZ42 (peptide sequence: AILTPNHVEFSR, peptide start residue: 197)”, the log2 fold change was -0.259.
As for “UniProt Q9CX11 (peptide sequence: KKVGGPNPLSCLK, peptide start residue: 198)”, the figure is 0.207; as for “UniProt Q9CY52 (peptide sequence: LPAEMEGEKK, peptide start residue: 256)”, -0.0268; as for “UniProt Q9D0E1 (peptide sequence: LKEVFSMAGVVVR, peptide start residue: 219)”, -0.432.
In the case of “UniProt Q9CR58 (peptide sequence: GMLHALMR, peptide start residue: 51)”, the log2 fold change stood at 0.318.
As for “UniProt Q9CWJ9 (peptide sequence: NKDLPESALR, peptide start residue: 407)”, the figure is 0.383.
